PubChem BioAssay AID504808, Drosophila RNAi Screening Center | 2011
In all, the deposit lists about 21,000 reagents; shown is a random part of those that have a named target and a result. Of all reagents, 18 (0.084%) are marked active. 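Raw counts without plate normalisation, one of two replicates; the ratio scores behind the calls were not deposited.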 Entries without a mark were called inactive. The numbers tell different reagents against one gene apart. Names joined by + are all predicted targets of the reagent. Not given: the amount of reagent, the time to read-out.

- Assay: 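Fly genes required to hold E2F transcription in check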 (primary screen)
- Cell system: Drosophila S2 cells
- Reagent: long dsRNA against Drosophila genes
- Measured: 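Dual luciferase plate measurements; E2F-specific signal taken as firefly over Renilla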
- Scale: E2F firefly: higher = more E2F reporter activity; Renilla normaliser: higher = more normaliser reporter signal
- Hit rule: 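a knock-down counted as active when the firefly/Renilla E2F signal rose above 50%, a threshold chosen arbitrarily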

target	reagent no.	E2F firefly, rep 1	Renilla normaliser, rep 1
CG12945	1	1.24e5	6761
CycE	1	51689	198
CycE	2	65193	118
CG1971	1	1773	992
nrm	1	94954	3916
nrm	2	1.04e5	4013
nrm	3	1.45e5	7360
inaC	1	73369	3397
CG17991	1	1.05e5	5695
CG4789	1	2.37e5	6213
Hsp68	1	1.03e5	5515
Cad99C	1	1.27e5	6400
Cad99C	2	1938	1076
a5	1	1.80e5	5465
PolA1	1	63379	3410
ND2 (retired record)	1	1.33e5	7224
mlt	1	2641	201
Wee1	1	1.54e5	4879
pall	1	79662	3810
PTPMT1	1	1.16e5	5844
tank	1	1.57e5	4895
Cpr47Eb	1	96571	4851

Individual results from the list:
Entry for Cad99C #1 in “Renilla normaliser, rep 1”: 6400
Under “Renilla normaliser, rep 1”, inaC reads 3397
pall, E2F firefly, rep 1 → 79662
Value for Hsp68 under “E2F firefly, rep 1”: 1.03e5
Under “E2F firefly, rep 1”, Cad99C #2 has 1938
Under “E2F firefly, rep 1”, nrm #1 shows 94954

The list goes on:
target	reagent no.	E2F firefly, rep 1	Renilla normaliser, rep 1
Vps2	1	1907	1052
Rbm13	1	68563	4660
Ogg1	1	8115	676
CG31431	1	1.52e5	7878
CG33459	1	1.66e5	5288
PIG-F	1	1.45e5	6409
CG14546	1	1.13e5	5931
Qsox1	1	1.11e5	5090
CG42402	1	1.34e5	6642
CG12865 (retired record)	1	1.07e5	4613
Tim17a1	1	1.50e5	6911
Lcp65Ag3 + Lcp65Ag2 + Lcp65Ag1	1	1.09e5	4395
Lcp65Ag3 + Lcp65Ag2 + Lcp65Ag1	2	92652	3510
